These results are taken from US11998013B1, “1-(morpholin-4-yl)-3-(naphthalen-2-yloxy)propan-2-ol as an eco-friendly insecticidal agent against spodoptera littoralis (boisd.)” (priority 2023, dated 2024).

For this data set, the system named is Spodoptera littoralis. Description: Insecticidal bioassay screening (castor leaf dip, larval mortality). It counts as in vivo. Particulars: 72 h, slope of regression (LDP) line. Here is the method: Five concentrations (200, 100, 50, 25, 12.5 ppm) were designed for this synthetic compound and the reference fenoxycarb compound as the dynamic ingredients based on ppm via diluting the commercial formulation.
In this experiment, castor leaves are immersed in each of the previously prepared concentrations of the components for 10 seconds and then left to dry for 60 minutes. Larvae of the second and fourth instars of each checked strain are prepared with treated leaves in gauze-covered glass containers for 72 hrs. An untreated control is made in which leaves are dipped in triton x-100 and distilled water only. Then the preserved leaves were removed & fresh, untreated leaves were provided for 72 hours. Three replicates (10 larvae each) were checked for each concentration. Daily inspection was carried out for all treatments and mortality percentages were recorded 3 days (72 hours) after treatment. The average mortality percentage was corrected employing Abbott's formula. The corrected mortality rate for each of the previously synthesized compounds is statistically calculated according to Finney (1970). Through this rate, the corresponding concentration test lines (LDP lines) are assessed. Fifty and ninety percent mortality are determined, and the regression values for the checked products were previously evaluated.

The structures appear in SMILES notation.

In the case of `OC(COc1ccc2ccccc2c1)CN1CCOCC1` (centres unmarked) [Compound 2, 1-(morpholin-4-yl)-3-(naphthalen-2-yloxy)propan-2-ol], the “slope ± SE” value turned out to be 0.238 ± 0.076 (2nd instar larvae) and 0.255 ± 0.0862 (4th instar larvae).
